# Reference: patent US4743610A, “N-[ω(3-pyridinyl)alkyl]benzamides, useful as thromboxane synthetase enzyme and/or cardioprotective agents” (American Cyanamid Company, priority 1987, dated 1988)
# At least one read-out could not be matched to a standard name with certainty.
# Target: T1, thromboxane synthetase enzyme (Rattus norvegicus, UniProt P49430)
# T1 construct: The platelets were isolated by centrifuging the PRP for 10 minutes; endogenous in cells; host or cells: washed platelets from arterial blood of Okamoto-Aoki spontaneously hypertensive rats (SHR; animals from Taconic Farms, Germantown, N.Y.)
# T1 sequence (P49430 1-533): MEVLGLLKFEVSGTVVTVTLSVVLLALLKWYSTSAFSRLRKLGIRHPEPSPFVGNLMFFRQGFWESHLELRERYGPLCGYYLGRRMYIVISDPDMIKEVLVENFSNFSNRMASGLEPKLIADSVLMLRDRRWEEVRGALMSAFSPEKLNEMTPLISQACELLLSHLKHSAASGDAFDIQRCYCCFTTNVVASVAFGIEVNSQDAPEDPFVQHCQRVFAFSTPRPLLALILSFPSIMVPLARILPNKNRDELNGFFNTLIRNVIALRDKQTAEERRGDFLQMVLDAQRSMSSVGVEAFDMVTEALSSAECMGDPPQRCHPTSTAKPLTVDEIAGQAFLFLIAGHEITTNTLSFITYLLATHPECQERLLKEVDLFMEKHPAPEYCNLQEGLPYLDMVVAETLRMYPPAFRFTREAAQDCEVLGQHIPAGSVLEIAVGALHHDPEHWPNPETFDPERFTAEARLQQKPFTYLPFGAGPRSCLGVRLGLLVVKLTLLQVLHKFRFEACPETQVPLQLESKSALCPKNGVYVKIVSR
# Experiment: Inhibition of thromboxane formation (TXB2 RIA) in washed platelets of spontaneously hypertensive rats
# Assay type: cell-based, Okamoto-Aoki spontaneously hypertensive rats (SHR)
# Details: SHR platelets, 10 minutes at 37° C., drug concentration not printed
# Method: Under urethan anesthesia, […] of arterial blood was collected in one ml. of 3.2% sodium citrate in a polystyrene tube from Okamoto-Aoki spontaneously hypertensive rats (SHR) (Taconic Farms, Germantown, N.Y.) between 19 and 24 weeks in age. The blood was diluted with 3 ml. of cold saline and centrifuged at room temperature for 15 minutes at 460×g. The platelet rich plasma (PRP) was separated. The platelets were isolated by centrifuging the PRP for 10 minutes at 1060 xg and were washed in 4 ml. of cold oxygenated Krebs phosphate buffer, pH 7.4. The chilled platelets recovered from centrifuging at 800×g for 10 minutes were resuspended in oxygenated Krebs phosphate buffer and diluted to contain 4.5-6.0×10^4 platelets/μl. The inhibition of thromboxane (TX) formation was studied by determining the concentration of thromboxane B2 (TXB2), the stable hydrolysis product of TXA2. Assay samples, prepared on ice, contained 200 μl platelet suspension, 50 μl saline, and 50 μl vehicle or drug under study (OKY1581, UK-37248-01, 1-benzylimidazole, or indomethacin). […] The TXB2 content for each sample was determined by a direct radioimmunoassay (RIA) utilizing a TXB2 specific RIA kit purchased from New England Nuclear, Boston, MA. and expressed as pg TXB2 formed minute^-1 sample^-1, from which the percent inhibition of TXB2 formation was calculated.
smiles,measurement,setting,value
"Cl.Cl.Nc1cc(Cl)ccc1C(=O)NCCCCc1cccnc1 [Example 6, 2-Amino-4-Chloro-N-[4-(3-pyridinyl)butyl]benzamide dihydrochloride]",% Inhibition (of TXB2 formation),listed as 2-Amino-4-chloro-N--[4-(3-pyridinyl)butyl]benzamide dihydrochloride,98%
same,% Inhibition (of TXB2 formation),listed as 2-Amino-4-chloro-N--[4-(3-pyridinyl]butyl]benzamide dihydrochloride,99%
